Experimental findings from article PMC12328545, “Anticancer potential of 2,2′-bipyridine hydroxamic acid derivatives in head and neck cancer therapy” (Journal of Computer-Aided Molecular Design, 2025) are described below.

Assay type in all cases: cell-based
One assay deals with SiHa (cervical) cells. Put plainly: In-vitro cell viability (MTT) assay, SiHa. The note with it: Homo sapiens, 48 h, read-out: Anti-proliferative activity IC50. How it is done: (§1) The human cancer cells, namely, SiHa (cervical), MCF7 (breast) and Cal27 (oral) were procured from the ATCC (Manassas, VA, USA). The normal human foreskin fibroblasts were isolated after obtaining the ethical clearance from the institutional ethics committee, Kasturba Medical College, MAHE, Manipal, India. Isolation of fibroblasts was performed using skin epidermis (human dermal fibroblasts (HDF). The cells were cultured in DMEM (Dulbecco's Modified Eagle Medium) with 10% FBS (Fetal Bovine Serum) (Himedia, India). The culture medium was then renewed every 48–72 h. The cells were cultured under optimum conditions by maintaining the cells in incubator (Eppendorf CellXpert® C170, Hamburg, Germany) with 5% carbon dioxide (CO2) and humidified air at 37 °C.
(§2) The cells were trypsinized using 0.25% trypsin, and their total count was determined using a haemocytometer. Subsequently, 10,000 cells/well for SiHa, Cal27, and MCF7 cells and 5000 cells/well for fibroblast cells were seeded in 96 well plate and incubated for 24 h in CO2 incubator at 37 °C. Then 5 mg/mL of 3[-dimethylthiazol-2-yl]-2,5-diphenyl-tetrazolium bromide (MTT) was added after a 48 h incubation with varying concentrations of the test compounds. […] The optical densities (O.D) of the samples were measured at 570 nm and 640 nm using Tecan Spark (Tecan, Männedorf, Switzerland). […]

The next assay relates to MCF7 (breast) cells. Put plainly: In-vitro cell viability (MTT) assay, MCF7. The note with it: Homo sapiens, 48 h, read-out: Anti-proliferative activity IC50. How it is done: as §1, §2
Another assay relates to Cal27 (oral) cells. The assay can be described thus: In-vitro cell viability (MTT) assay, Cal27. The settings on record: Homo sapiens, CAL-27, 48 h, read-out: Anti-proliferative activity IC50. As for the experimental part: as §1, §2
Assay [1] concerns normal human foreskin fibroblasts. The assay can be described thus: In-vitro cell viability (MTT) assay, normal fibroblasts. The settings on record: Fibroblast, 48 h, read-out: Anti-proliferative activity IC50. As for the experimental part:
as §1, §2

Broadly, the IC50 is the concentration at which inhibition is half-maximal. For the compound `O=C(CCCCCCC(=O)Nc1ccccc1)NO` [SAHA, suberoylanilide hydroxamic acid], the IC50 with SiHa (cervical) cells is 25.2 ± 3.69 µM; in the assay with MCF7 (breast) cells it was > 100 µM; in the assay on Cal27 (oral) cells, 10.8 ± 4.8 µM; in assay [1], > 100 µM.
